We go through 1 substance from PMC4937415.

The chains behind the UniProt entries cited, without tags or fusion partners.
UniProt P27695: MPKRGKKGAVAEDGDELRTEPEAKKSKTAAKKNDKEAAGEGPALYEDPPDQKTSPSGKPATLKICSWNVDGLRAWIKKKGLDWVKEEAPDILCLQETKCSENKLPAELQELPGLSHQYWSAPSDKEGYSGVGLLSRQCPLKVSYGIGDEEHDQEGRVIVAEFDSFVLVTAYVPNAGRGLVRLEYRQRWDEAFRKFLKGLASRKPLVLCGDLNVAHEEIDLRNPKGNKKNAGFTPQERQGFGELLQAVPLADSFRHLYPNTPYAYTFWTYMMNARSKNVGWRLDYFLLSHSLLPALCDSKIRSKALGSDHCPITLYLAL

Results are given in words; binding and its absence hold for the method and conditions named. For part of these data: In cells and extracts the contact can be indirect. Some binding calls cover weakened binding; strength is not graded here.

Assay [1] addresses T1, Peroxiredoxin 1 (PRDX1) (human (endogenous in HeLaS and HeLa)) (UniProt Q06830).
T1 sequence: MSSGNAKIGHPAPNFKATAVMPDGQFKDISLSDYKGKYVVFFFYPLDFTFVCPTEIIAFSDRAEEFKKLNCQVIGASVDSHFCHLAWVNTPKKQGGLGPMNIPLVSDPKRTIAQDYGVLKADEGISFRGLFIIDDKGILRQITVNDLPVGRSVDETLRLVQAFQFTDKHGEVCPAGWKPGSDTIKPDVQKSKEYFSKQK
Briefly: condition: only cells treated with 20 μM E3330 for 4 h; SEC; as a6, but HeLa cells treated with 20 μM E3330 for 4 h; fractions 23 to 28 probed with anti-PRDX1.

Assay [2] deals with T1, Peroxiredoxin 1 (PRDX1) (human (endogenous in HeLaS and HeLa)). Nature of the assay: SEC; nuclear extract of HeLa cells prepared with the thiol blocking agent MMTS (80 mM); Superose 6 FPLC, buffer A, 0.25 ml/min; extract and fractions by Western blot with anti-PRDX1 and anti-APE1; 60 kDa polypeptide in fractions 23 and 24. (In gel filtration, larger molecules generally elute earlier.)

Assay [3] shares this target. Nature of the assay: co-IP; protein A magnetic beads with anti-PRDX1 antibodies, HeLa nuclear extract, overnight at 4 °C; blot with anti-PRDX1 and anti-APE1.

As for “APE1 (native, 37 kDa) (from UniProt P27695 1-318)”, the binding result in assay [1] is recorded as “no binding”; in assay [2], “binds”; in assay [3], “binds”.
